{"source": "paper PMC5996148", "assay_in_all_cases": "protein microarray (ProtoArray v5.0), streptavidin-Alexa Fluor 647", "settings_in_all_cases": "3'-biotin; 20 mM Tris (pH 7.5), 5 mM MgCl2, 100 mM KCl, 0.1% Tween-20, A/T-rich and random oligonucleotide blockers; temperature not stated; high values mean tight binding", "key": {"SIRT3 (human)": {"system": "SIRT3 (human)"}, "SIVA1 (human)": {"system": "SIVA1 (human)"}, "SKIL (human)": {"system": "SKIL (human)"}, "SKP1A (human)": {"system": "SKP1A (human)"}, "SLC1A6": {"biological_target": "T1, SLC1A6 (UniProt P48664)", "T1 sequence": "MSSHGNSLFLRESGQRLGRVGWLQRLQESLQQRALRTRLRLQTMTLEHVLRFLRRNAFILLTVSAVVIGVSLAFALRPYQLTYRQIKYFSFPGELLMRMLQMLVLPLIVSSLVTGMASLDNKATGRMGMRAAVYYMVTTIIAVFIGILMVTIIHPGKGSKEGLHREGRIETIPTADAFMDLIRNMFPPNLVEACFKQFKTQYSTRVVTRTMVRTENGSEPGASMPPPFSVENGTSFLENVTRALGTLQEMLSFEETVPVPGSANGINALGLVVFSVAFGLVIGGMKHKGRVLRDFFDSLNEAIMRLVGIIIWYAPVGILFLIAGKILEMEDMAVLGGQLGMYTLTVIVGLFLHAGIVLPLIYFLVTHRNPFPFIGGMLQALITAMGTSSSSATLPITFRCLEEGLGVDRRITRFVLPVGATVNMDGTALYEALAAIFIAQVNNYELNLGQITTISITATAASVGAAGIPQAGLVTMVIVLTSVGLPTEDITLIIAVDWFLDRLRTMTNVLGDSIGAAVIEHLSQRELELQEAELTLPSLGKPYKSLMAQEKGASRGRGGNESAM"}, "SLC25A46 (human)": {"system": "SLC25A46 (human)"}, "SLC26A2 (human)": {"system": "SLC26A2 (human)"}, "SLC2A5 (human)": {"system": "SLC2A5 (human)"}, "SLC39A1 (human)": {"system": "SLC39A1 (human)"}, "SLC7A1 (human)": {"system": "SLC7A1 (human)"}}, "note": "The other results are listed elsewhere or left out. For some of these results: Construct or isoform of the protein are uncertain."}
{"sequence": "GGGGACAGGGGTATGGGGAGGGG [G4-3 biotinylated (CtG)]", "values": [{"measurement": "binding signal", "setting": "SIRT3 (human)", "result": -0.299, "unit": "z-score"}, {"measurement": "binding signal", "setting": "SIVA1 (human)", "result": -0.329, "unit": "z-score"}, {"measurement": "binding signal", "setting": "SKIL (human)", "result": -0.314, "unit": "z-score"}, {"measurement": "binding signal", "setting": "SKP1A (human)", "result": -0.341, "unit": "z-score"}, {"measurement": "binding signal", "setting": "SLC1A6", "result": -0.314, "unit": "z-score"}, {"measurement": "binding signal", "setting": "SLC25A46 (human)", "result": -0.304, "unit": "z-score"}, {"measurement": "binding signal", "setting": "SLC26A2 (human)", "result": -0.326, "unit": "z-score"}, {"measurement": "binding signal", "setting": "SLC2A5 (human)", "result": -0.326, "unit": "z-score"}, {"measurement": "binding signal", "setting": "SLC39A1 (human)", "result": -0.317, "unit": "z-score"}, {"measurement": "binding signal", "setting": "SLC7A1 (human)", "result": -0.336, "unit": "z-score"}]}
